The target of assay [1] is TBSV p33 replication protein (split-ubiquitin bait, pGAD-BT2-N-His33) (Tomato bushy stunt virus) (UniProt P15962). Nature of the assay: two-hybrid; split-ubiquitin membrane yeast two-hybrid (MYTH, Dualmembrane kit3); viral replication protein as bait co-expressed with NubG prey in yeast NMY51; growth on Trp-/Leu-/His-/Ade- plates.
Assay [2] addresses p130 replication protein of Tobacco mosaic virus (TMV) (MYTH bait) (Tobacco mosaic virus). The description is as above.

The chains behind the UniProt entries cited, without tags or fusion partners. Where a name states a change or a piece, a line headed by the entry shows the natural chain unless it says otherwise. Residues count along the entry.
UniProt P15962, residues 1-296: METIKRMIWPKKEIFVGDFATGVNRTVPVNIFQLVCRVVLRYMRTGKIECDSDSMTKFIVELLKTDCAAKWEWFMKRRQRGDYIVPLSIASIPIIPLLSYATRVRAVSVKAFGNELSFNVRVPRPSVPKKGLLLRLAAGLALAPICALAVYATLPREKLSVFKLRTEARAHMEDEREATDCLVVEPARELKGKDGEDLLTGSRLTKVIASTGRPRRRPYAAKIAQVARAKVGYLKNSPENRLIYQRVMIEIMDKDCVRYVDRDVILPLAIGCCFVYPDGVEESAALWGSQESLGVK
UniProt Q9C566: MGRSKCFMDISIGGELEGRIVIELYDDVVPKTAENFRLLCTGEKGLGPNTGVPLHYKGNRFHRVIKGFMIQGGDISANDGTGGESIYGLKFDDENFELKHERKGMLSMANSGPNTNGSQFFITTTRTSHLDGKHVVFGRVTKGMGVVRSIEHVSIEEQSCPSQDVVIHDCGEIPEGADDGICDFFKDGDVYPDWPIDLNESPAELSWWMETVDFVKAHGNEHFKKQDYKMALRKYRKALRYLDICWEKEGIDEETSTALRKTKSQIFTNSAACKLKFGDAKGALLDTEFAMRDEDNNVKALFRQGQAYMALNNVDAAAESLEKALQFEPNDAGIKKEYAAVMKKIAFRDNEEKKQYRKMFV
UniProt Q9FJL3: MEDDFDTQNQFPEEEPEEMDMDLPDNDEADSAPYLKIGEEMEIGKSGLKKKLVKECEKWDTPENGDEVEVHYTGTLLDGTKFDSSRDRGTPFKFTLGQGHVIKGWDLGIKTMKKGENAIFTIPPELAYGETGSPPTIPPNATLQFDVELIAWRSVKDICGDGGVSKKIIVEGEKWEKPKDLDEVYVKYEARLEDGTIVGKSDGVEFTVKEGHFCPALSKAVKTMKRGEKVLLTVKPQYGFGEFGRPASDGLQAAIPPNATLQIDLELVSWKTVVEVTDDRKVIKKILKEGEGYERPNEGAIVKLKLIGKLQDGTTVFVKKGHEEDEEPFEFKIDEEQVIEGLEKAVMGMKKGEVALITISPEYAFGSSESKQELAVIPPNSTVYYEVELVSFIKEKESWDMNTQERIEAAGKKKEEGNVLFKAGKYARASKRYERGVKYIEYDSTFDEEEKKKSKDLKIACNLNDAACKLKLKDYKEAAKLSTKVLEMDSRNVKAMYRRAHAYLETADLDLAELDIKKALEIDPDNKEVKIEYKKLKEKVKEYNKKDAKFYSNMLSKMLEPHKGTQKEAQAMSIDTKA

These are yes or no findings as the source states them, for the method shown. A result given as binding can be weak or reduced; the word gives no strength.

Regarding “TPR domain of Arabidopsis Cyp40 protein At2g15790 (MYTH prey) (from UniProt Q9C566) (domain or fragment)”, the binding result in assay [1] is reported as “binds weakly”.
Same read-out and setting: the result for “TPR domain of Cpr7p (MYTH prey) (from UniProt P47103) (domain or fragment)” reads “binds”; that for “TPR domain of Arabidopsis Cyp40-like protein At5g48570 (MYTH prey) (from UniProt Q9FJL3) (domain or fragment)”, “binds”; that for “catalytic Cyp domain of Cpr7p (MYTH prey) (from UniProt P47103) (domain or fragment)”, “binds”.

B1: Cpr7p Cyp40-like cyclophilin (MYTH prey, pPRN-N-CPR7) (protein, UniProt P47103 1-393)
chain: MIQDPLVYLDISIDKKPIGRIVCKLFREKAPKTTENFYKLCAGDVKSPLKDQQYLSYKGNGFHRVVKNFMIQAGDIVFGTQKDSSSSSVGKGGCSIYADKEEVKTDDESFCYGNFEDENLGEFVEPFTLGMANLGSPNTNNSQFFITTYAAPHLNGKHSIFGQVVHGKSVVRTIENCRVDSDGVPESDVRISDCGVWEKTMGVPLYNASNDQIGGDVYEEYPDDDTHFGDDDFGKALEAANIIKESGTLLFKKKDYSNAFFKYRKSLNYINEYMPEPDVDKERNIQFINLKMKIYLNLSLVLFNLERYDDAIMYATYLLEMDNVPNRDQAKAYYRRGNSYLKKKRLDEALQDYIFCKEKNPDDEVIEQRIEYVNRLIEENKEKTRKNISKFFS
On to B1, for which, in assay [2], the binding result is reported as “binds”.

The values are drawn from paper PMC3276564.
